Taken from: PubChem BioAssay AID1224826 (NIAID, 2016)

- Screen: 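Regulators of Tlr4 signalling leading to Tnf-alpha expression in macrophages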 (primary screen)
- Cells: RAW264.7 G9 macrophages from mouse bearing reporters for p65 (GFP) and the Tnf promoter (mCherry)
- Reagent: siRNA pool against mouse genes, 100 nM
- Timing: 16 h of LPS stimulation, after 2 days of siRNA transfection
- Treatment: bacterial lipopolysaccharide (Salmonella minnesota R595), 10 ng/ml
- Measurement: 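Nuclear mCherry signal of the Tnf promoter reporter measured by imaging after background removal, scaled to each plate median and turned into robust z-scores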
- Scale: Tnf reporter robust z-score: higher = stronger Tnf promoter reporter signal after LPS; Tnf reporter intensity: higher = stronger Tnf promoter reporter signal
- Rule for the call: 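Called active when robust z-score is at most -1.3, matching the median of the Tlr4 knock-down control, or over 3; control wells and wells with under 50 cells never active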
- Calls: active = Tnf reporter clearly lowered or raised; inactive = no clear change in Tnf reporter
The whole screen tested about 17,000 reagents; this is an unselected part. Of all reagents, about 1,110 (6.6%) got an active call. 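Active means lowered or raised reporter signal; replicate intensities are raw and not normalised per plate.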 Reagents against one gene are numbered here.

| gene | reagent no. | Tnf reporter robust z-score | fewer than 50 cells in well | Tnf reporter intensity, replicate 1 | Tnf reporter intensity, replicate 2 | Outcome |
| --- | --- | --- | --- | --- | --- | --- |
| Btla (B and T lymphocyte associated) | 1 | 1.24 | enough cells in well | 166 | 220 | inactive |
| Adamtsl5 (ADAMTS-like 5) | 1 | -0.47 | enough cells in well | 85.3 | 90.3 | inactive |
| Or5ac20 (olfactory receptor family 5 subfamily AC member 20) | 1 | 0.28 | enough cells in well | 176 | 147 | inactive |
| Gdi2 (GDP dissociation inhibitor 2) | 1 | 0.86 | enough cells in well | 260 | 216 | inactive |
| Gdi2 (GDP dissociation inhibitor 2) | 2 | -0.87 | enough cells in well | 195 | 154 | inactive |
| Smg9 (SMG9 nonsense mediated mRNA decay factor) | 1 | 0.92 | enough cells in well | 286 | 117 | inactive |
| Sppl3 (signal peptide peptidase 3) | 1 | – | fewer than 50 cells per well; well left out of calls | 87 | 37.1 | inactive |
| Gfm1 (G elongation factor, mitochondrial 1) | 1 | 0.29 | enough cells in well | 227 | 180 | inactive |
| Grin1 (glutamate receptor, ionotropic, NMDA1 (zeta 1)) | 1 | 1.51 | enough cells in well | 378 | 364 | inactive |
| Zfyve9 (zinc finger, FYVE domain containing 9) | 1 | 0.35 | enough cells in well | 205 | 131 | inactive |
| Slc1a3 | 1 | 3.57 | enough cells in well | 212 | 234 | active |
| Wnk3 (WNK lysine deficient protein kinase 3) | 1 | 0.35 | enough cells in well | 271 | 132 | inactive |
| Ablim1 (actin-binding LIM protein 1) | 1 | -0.98 | enough cells in well | 93.7 | 119 | inactive |
| Reg4 (regenerating islet-derived family, member 4) | 1 | -0.09 | enough cells in well | 108 | 140 | inactive |
| Mcm3 (minichromosome maintenance complex component 3) | 1 | -0.45 | enough cells in well | 250 | 152 | inactive |
| Fbl (fibrillarin) | 1 | 0.91 | enough cells in well | 305 | 220 | inactive |
| Chd1l (chromodomain helicase DNA binding protein 1-like) | 1 | -0.46 | enough cells in well | 88.8 | 217 | inactive |
| Ccp110 (centriolar coiled coil protein 110) | 1 | 1.39 | enough cells in well | 117 | 222 | inactive |
| Pdcd7 (programmed cell death 7) | 1 | – | fewer than 50 cells per well; well left out of calls | 230 | 234 | inactive |
| Slc14a2 | 1 | -0.47 | enough cells in well | 167 | 131 | inactive |
| Sike1 (suppressor of IKBKE 1) | 1 | 0.2 | enough cells in well | 264 | 33.6 | inactive |
| Sike1 (suppressor of IKBKE 1) | 2 | – | fewer than 50 cells per well; well left out of calls | 120 | 95.2 | inactive |
| Wnk2 (WNK lysine deficient protein kinase 2) | 1 | -1.16 | enough cells in well | 127 | 92.4 | inactive |
| Tmem255a (transmembrane protein 255A) | 1 | 0.06 | enough cells in well | 137 | 204 | inactive |
| Cab39l (calcium binding protein 39-like) | 1 | – | fewer than 50 cells per well; well left out of calls | 205 | 62.5 | inactive |
| Zbtb6 (zinc finger and BTB domain containing 6) | 1 | 0.43 | enough cells in well | 177 | 185 | inactive |
| Usp3 (ubiquitin specific peptidase 3) | 1 | -0.3 | enough cells in well | 183 | 235 | inactive |
| Ctu1 (cytosolic thiouridylase subunit 1) | 1 | -1.39 | enough cells in well | 48.8 | 108 | active |
| Rnf6 (ring finger protein (C3H2C3 type) 6) | 1 | 0.62 | enough cells in well | 194 | 187 | inactive |
| Gpx1 (glutathione peroxidase 1) | 1 | 0.64 | enough cells in well | 311 | 286 | inactive |
| Scaf11 (SR-related CTD-associated factor 11) | 1 | -0.18 | enough cells in well | 131 | 168 | inactive |
| Krt19 (keratin 19) | 1 | -0.19 | enough cells in well | 239 | 130 | inactive |
| Krt5 (keratin 5) | 1 | -0.13 | enough cells in well | 247 | 131 | inactive |
| Pkdcc (protein kinase domain containing, cytoplasmic) | 1 | 0.37 | enough cells in well | 234 | 166 | inactive |
| Hsf2 (heat shock factor 2) | 1 | 0.57 | enough cells in well | 318 | 194 | inactive |
| Pcnx4 (pecanex homolog 4) | 1 | 0.97 | enough cells in well | 188 | 89.6 | inactive |
| Wdr7 (WD repeat domain 7) | 1 | -0.53 | enough cells in well | 232 | 173 | inactive |
| Dnajc5 (DnaJ heat shock protein family (Hsp40) member C5) | 1 | -0.08 | enough cells in well | 249 | 68.1 | inactive |
| Gtpbp1 (GTP binding protein 1) | 1 | 1.62 | enough cells in well | 346 | 277 | inactive |
| Rhbdd2 (rhomboid domain containing 2) | 1 | – | fewer than 50 cells per well; well left out of calls | 54.1 | 25.4 | inactive |
| Rhbdd2 (rhomboid domain containing 2) | 2 | – | fewer than 50 cells per well; well left out of calls | 221 | 83.1 | inactive |
| Ptpn21 (protein tyrosine phosphatase, non-receptor type 21) | 1 | -1.38 | enough cells in well | 121 | 112 | active |
| Fbxo34 (F-box protein 34) | 1 | 1.21 | enough cells in well | 359 | 185 | inactive |
| Rdh5 (retinol dehydrogenase 5) | 1 | 0.79 | enough cells in well | 430 | 234 | inactive |
| Fam131a (family with sequence similarity 131, member A) | 1 | 1.11 | enough cells in well | 236 | 9.63 | inactive |
| Zfp467 (zinc finger protein 467) | 1 | 1.91 | enough cells in well | 189 | 223 | inactive |
| Dgkg (diacylglycerol kinase, gamma) | 1 | 0.29 | enough cells in well | 137 | 172 | inactive |
| Pemt (phosphatidylethanolamine N-methyltransferase) | 1 | -1.66 | enough cells in well | 69.2 | 68.6 | active |
| Or4c123 (olfactory receptor family 4 subfamily C member 123) | 1 | 0.5 | enough cells in well | 205 | 187 | inactive |
| Ada (adenosine deaminase) | 1 | – | fewer than 50 cells per well; well left out of calls | 167 | 171 | inactive |
| Cryaa (crystallin, alpha A) | 1 | -1.02 | enough cells in well | 165 | 123 | inactive |
| Dnajc30 (DnaJ heat shock protein family (Hsp40) member C30) | 1 | 1.6 | enough cells in well | 193 | 190 | inactive |
| Ppm1b (protein phosphatase 1B, magnesium dependent, beta isoform) | 1 | 0.55 | enough cells in well | 261 | 254 | inactive |
| Derl3 (Der1-like domain family, member 3) | 1 | – | fewer than 50 cells per well; well left out of calls | 242 | 75.8 | inactive |
| Tasor2 (transcription activation suppressor family member 2) | 1 | -1.37 | enough cells in well | 84.2 | 143 | active |
| Akr1b8 (aldo-keto reductase family 1, member B8) | 1 | -1.04 | enough cells in well | 107 | 112 | inactive |
| Igbp1b (immunoglobulin (CD79A) binding protein 1b) | 1 | -0.11 | enough cells in well | 251 | 81.8 | inactive |
| Or5b108 (olfactory receptor family 5 subfamily B member 108) | 1 | -0.2 | enough cells in well | 176 | 108 | inactive |

Part of the list above, set out differently.
{"gene":"Rnf6 (ring finger protein (C3H2C3 type) 6)","reagent no.":1,"Tnf reporter robust z-score":0.62,"fewer than 50 cells in well":"enough cells in well","Tnf reporter intensity, replicate 1":194,"Tnf reporter intensity, replicate 2":187,"Outcome":"inactive"}
{"gene":"Gpx1 (glutathione peroxidase 1)","reagent no.":1,"Tnf reporter robust z-score":0.64,"fewer than 50 cells in well":"enough cells in well","Tnf reporter intensity, replicate 1":311,"Tnf reporter intensity, replicate 2":286,"Outcome":"inactive"}
{"gene":"Scaf11 (SR-related CTD-associated factor 11)","reagent no.":1,"Tnf reporter robust z-score":-0.18,"fewer than 50 cells in well":"enough cells in well","Tnf reporter intensity, replicate 1":131,"Tnf reporter intensity, replicate 2":168,"Outcome":"inactive"}
{"gene":"Krt19 (keratin 19)","reagent no.":1,"Tnf reporter robust z-score":-0.19,"fewer than 50 cells in well":"enough cells in well","Tnf reporter intensity, replicate 1":239,"Tnf reporter intensity, replicate 2":130,"Outcome":"inactive"}
{"gene":"Krt5 (keratin 5)","reagent no.":1,"Tnf reporter robust z-score":-0.13,"fewer than 50 cells in well":"enough cells in well","Tnf reporter intensity, replicate 1":247,"Tnf reporter intensity, replicate 2":131,"Outcome":"inactive"}
{"gene":"Pkdcc (protein kinase domain containing, cytoplasmic)","reagent no.":1,"Tnf reporter robust z-score":0.37,"fewer than 50 cells in well":"enough cells in well","Tnf reporter intensity, replicate 1":234,"Tnf reporter intensity, replicate 2":166,"Outcome":"inactive"}
{"gene":"Hsf2 (heat shock factor 2)","reagent no.":1,"Tnf reporter robust z-score":0.57,"fewer than 50 cells in well":"enough cells in well","Tnf reporter intensity, replicate 1":318,"Tnf reporter intensity, replicate 2":194,"Outcome":"inactive"}
{"gene":"Pcnx4 (pecanex homolog 4)","reagent no.":1,"Tnf reporter robust z-score":0.97,"fewer than 50 cells in well":"enough cells in well","Tnf reporter intensity, replicate 1":188,"Tnf reporter intensity, replicate 2":89.6,"Outcome":"inactive"}
{"gene":"Wdr7 (WD repeat domain 7)","reagent no.":1,"Tnf reporter robust z-score":-0.53,"fewer than 50 cells in well":"enough cells in well","Tnf reporter intensity, replicate 1":232,"Tnf reporter intensity, replicate 2":173,"Outcome":"inactive"}
